# Results as given in PubChem BioAssay AID504834 (National Center for Advancing Translational Sciences (NCATS), 2011).
# The campaign covered roughly 320,000 compounds. About 22,000 (6.9%) were called active. The inconclusive results got no clear call from the source; some entries with a clear call stand among them for comparison. The call rests on the fitted dose curve; in most records, active means well fitted inhibition curve with a large enough effect; inconclusive means small, poorly fitted or top-dose-only effect, or another doubt; inactive means no such curve, though single readings can be large or run the other way. Where the call is inconclusive, the potency comes from a doubtful curve fit.
# Assay: Primary qHTS for delayed death inhibitors of the malarial parasite plastid, 96 hour incubation
# Conditions: P. falciparum luciferase reporter growth; series mostly up to 28.7 µM
# Summary of the method: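 Compounds incubated with erythrocytes infected by luciferase-expressing P. falciparum (2% hematocrit, 0.05% parasitemia final) for 96 hours, 37 C in 5% CO2. Growth inhibition scored as decreased luciferase luminescence.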
# Potency means the concentration at half of the fitted maximal effect.
row,Structure (SMILES),Potency
1,Clc1ccccc1-c1nnc(-c2ccccc2Cl)o1,"inconclusive: 7.38 µM [inhibitor, partial curve, poor fit]"
2,COC(=O)c1ccccc1NC1=C/C(=N\S(=O)(=O)c2cccs2)c2ccccc2C1=O,active: 0.657 µM
3,Cc1ccc(C(=O)N2CC(=O)Nc3ccc(F)cc3C2c2ccc(F)cc2)cc1[N+](=O)[O-] (stereo not given),inactive
4,CCOC(=O)N1CCC(NCCNC(=O)c2ccc(Cl)cc2)CC1,"inconclusive: 14.7 µM [inhibitor, single point]"
5,CC(Nc1cc(N2CCN(S(=O)(=O)N(C)C)CC2)ccc1[N+](=O)[O-])c1ccccc1 (stereo not given),inactive
6,Cc1nnc(SCC(=O)N(CC(C)C)c2c(N)n(Cc3ccccc3)c(=O)[nH]c2=O)n1N,inactive
7,CC(C)NC(=O)c1ccc(CSCc2ccccc2Cl)o1,active: 4.65 µM
8,CC(C)(C)NS(=O)(=O)c1ccc(NC(=O)C2CC(=O)N(CCc3ccc(F)cc3)C2)cc1 (stereo not given),inactive
9,COC(=O)c1cc2c(N)c(C(=O)c3ccccc3)sc2nc1C(OC)OC,"inconclusive: 10.4 µM [inhibitor, partial curve, poor fit]"
10,O=S(=O)(Nc1ccc(N2CCCCC2)cc1)c1ccc(F)cc1F,"inconclusive: 13.1 µM [inhibitor, single point]"
11,CC(=O)c1cccc(OCc2cc(C(=O)N3CC4C[C@@H]5CC3C[C@H](C4)C5)no2)c1,inactive
12,CCCN(C(=O)c1ccc(N(C)S(=O)(=O)c2ccc(C)cc2)cc1)C1CCS(=O)(=O)C1 (stereo not given),"inconclusive: 3.7 µM [inhibitor, partial curve, poor fit]"
13,Cc1ccc(S(=O)(=O)Cc2ccc([N+](=O)[O-])cc2)cc1,"inconclusive: 9.28 µM [inhibitor, single point]"
14,Cc1ccc2nc(N3CCC(C(=O)NC4CCCCC4)CC3)sc2c1,"inconclusive: 0.465 µM [inhibitor, full curve]"
15,CC1=NN(c2ccccc2)C(=O)C1/C=C1/NC(=S)NC1=O (stereo not given),inactive
16,N#CCSc1ccccc1NC(=O)COC(=O)CCNC(=O)c1ccc([N+](=O)[O-])cc1,inactive
18,COc1ccc(NC(=O)CN(C)S(=O)(=O)c2ccc3c(c2)CC(C)N3C(C)=O)cc1OC (stereo not given),inactive
19,COCC1CCN(C(=O)C2CCC(=O)N(CC3CCCCC3)C2)CC1 (stereo not given),"inconclusive: 18.5 µM [inhibitor, single point]"
20,O=C(CCN1C(=O)C2CC=C(Cl)CC2C1=O)NCc1ccccc1 (stereo not given),inactive

# Given with tabs: entries from further up.
row	Structure (SMILES)	Potency
8	CC(C)(C)NS(=O)(=O)c1ccc(NC(=O)C2CC(=O)N(CCc3ccc(F)cc3)C2)cc1 (stereo not given)	inactive
9	COC(=O)c1cc2c(N)c(C(=O)c3ccccc3)sc2nc1C(OC)OC	inconclusive: 10.4 µM [inhibitor, partial curve, poor fit]
